Experimental findings from publication PMC12263834, “Structural basis of Fanconi anemia pathway activation by FANCM” are described below.

By UniProt entry, the sequences of proteins in these tests, tags left out.
UniProt Q8N2Z9: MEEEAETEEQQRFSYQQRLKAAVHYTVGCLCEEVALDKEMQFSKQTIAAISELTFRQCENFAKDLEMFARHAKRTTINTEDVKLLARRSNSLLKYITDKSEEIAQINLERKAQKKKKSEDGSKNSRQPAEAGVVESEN

These are yes or no findings as the source states them, for the method shown. For some of these results: Binding seen in cells or lysates may run through a third protein. Some binding calls cover weakened binding; strength is not graded here. For some of these results: Tags and fused reporters may be left off the sequences shown.

The target in experiment [1] is T1, MBP-FANCC-FANCE-FANCF complex (UniProt Q00597).
T1 sequence 1: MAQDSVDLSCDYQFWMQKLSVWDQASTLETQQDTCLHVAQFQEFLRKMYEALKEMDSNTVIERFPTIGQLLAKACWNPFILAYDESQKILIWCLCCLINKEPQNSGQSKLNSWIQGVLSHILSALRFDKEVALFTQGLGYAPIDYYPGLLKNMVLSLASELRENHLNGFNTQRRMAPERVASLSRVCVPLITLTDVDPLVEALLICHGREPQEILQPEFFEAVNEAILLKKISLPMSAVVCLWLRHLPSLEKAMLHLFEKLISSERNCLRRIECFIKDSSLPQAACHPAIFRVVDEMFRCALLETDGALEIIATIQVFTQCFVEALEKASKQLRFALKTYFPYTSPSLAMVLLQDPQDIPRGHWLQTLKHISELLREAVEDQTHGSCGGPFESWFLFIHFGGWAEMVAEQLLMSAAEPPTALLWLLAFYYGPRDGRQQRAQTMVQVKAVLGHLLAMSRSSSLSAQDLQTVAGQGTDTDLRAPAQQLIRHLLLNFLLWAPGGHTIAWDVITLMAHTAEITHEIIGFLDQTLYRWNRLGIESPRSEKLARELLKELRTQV
T1 sequence 2: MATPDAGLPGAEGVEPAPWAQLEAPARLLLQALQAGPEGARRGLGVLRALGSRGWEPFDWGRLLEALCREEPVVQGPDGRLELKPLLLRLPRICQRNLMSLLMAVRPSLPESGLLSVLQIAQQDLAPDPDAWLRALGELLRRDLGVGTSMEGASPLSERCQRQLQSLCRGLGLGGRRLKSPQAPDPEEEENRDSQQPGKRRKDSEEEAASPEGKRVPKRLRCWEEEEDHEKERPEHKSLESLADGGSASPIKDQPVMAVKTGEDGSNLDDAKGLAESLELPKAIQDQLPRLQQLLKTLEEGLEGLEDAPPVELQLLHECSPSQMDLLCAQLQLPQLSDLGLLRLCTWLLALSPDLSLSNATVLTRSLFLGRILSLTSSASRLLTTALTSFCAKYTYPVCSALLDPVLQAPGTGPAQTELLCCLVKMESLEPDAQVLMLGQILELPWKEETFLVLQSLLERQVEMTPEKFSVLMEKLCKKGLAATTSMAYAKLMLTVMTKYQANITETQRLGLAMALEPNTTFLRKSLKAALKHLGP
T1 sequence 3: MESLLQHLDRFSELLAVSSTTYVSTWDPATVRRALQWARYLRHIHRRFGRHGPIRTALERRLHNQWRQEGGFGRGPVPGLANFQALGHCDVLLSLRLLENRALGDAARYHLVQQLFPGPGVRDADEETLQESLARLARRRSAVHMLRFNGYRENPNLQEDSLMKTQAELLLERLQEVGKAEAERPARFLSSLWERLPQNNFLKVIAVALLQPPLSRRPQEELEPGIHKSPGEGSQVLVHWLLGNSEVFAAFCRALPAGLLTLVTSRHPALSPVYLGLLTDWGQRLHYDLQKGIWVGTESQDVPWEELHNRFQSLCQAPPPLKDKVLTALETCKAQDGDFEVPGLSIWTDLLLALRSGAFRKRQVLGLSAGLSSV
Put plainly: pull-down; amylose copurification; MBP-FANCC-E-F alone or with FANCM:FAAP24; both purified.

Experiment [2] deals with FANCM (full-length, as purified in the FANCM anchor complex FANCMc) (human) (UniProt Q8IYD8). In words: co-purification; FANCM complexes purified as in Hodson et al, 2022; subunits shown by Coomassie blue staining and Western blotting.
Experiment [3] addresses T2, FANCM-CTD (FANCM 1799-2048) (human) (UniProt Q8IYD8).
T2 sequence: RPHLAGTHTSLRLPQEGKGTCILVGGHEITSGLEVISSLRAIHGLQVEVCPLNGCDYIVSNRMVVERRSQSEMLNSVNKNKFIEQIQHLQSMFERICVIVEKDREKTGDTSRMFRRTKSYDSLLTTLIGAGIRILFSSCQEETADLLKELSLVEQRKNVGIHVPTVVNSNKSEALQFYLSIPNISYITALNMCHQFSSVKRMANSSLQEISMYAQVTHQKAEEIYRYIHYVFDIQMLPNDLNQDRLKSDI
In words: dynamic light scattering; Zetasizer Nano-S; protein >0.5 mg/ml, 0.22 µm filtered; both purified.

In experiment [4] the target is T2, FANCM-CTD (FANCM 1799-2048) (human). Put plainly: crystal structure; FANCM-CTD:FAAP24 mixed with splayed arm DNA (3:1 DNA to protein); 25% PEG3350, 0.1 M di-ammonium monohydrogen phosphate; 2.4 Å; both purified.
Experiment [5] shares this target. In words: SEC; purified FANCM-CTD:FAAP24; peak at the size of a heterodimer; both purified. (In general: In gel filtration, larger molecules generally elute earlier.)
The target of experiment [6] is T3, FANCM-CTD:FAAP24 heterodimer (human) (UniProt Q8IYD8+Q9BTP7). In words: dynamic light scattering; Zetasizer Nano-S; protein >0.5 mg/ml, 0.22 µm filtered; both purified.
The target in experiment [7] is T3, FANCM-CTD:FAAP24 heterodimer (human). Put plainly: SEC; purified FANCM-CTD:FAAP24; peak at the size of a heterodimer; both purified.
In experiment [8] the target is Flag-FANCM-wildtype (expressed in cells) (human) (UniProt Q8IYD8). In words: co-IP; Flag-FANCM precipitated with α-Flag M2 agarose from benzonase-treated lysates (K100 buffer, NaCl raised to 250 mM); Western blots of FANCE and FANCA quantified, n = 3. A general note: In western blotting, separated proteins are transferred to a membrane and probed.

Regarding “FANCM:FAAP24 complex (full-length FANCM with FAAP24, without MHF1/MHF2) (from UniProt Q8IYD8 1-2048; Q9BTP7 1-215)”, the binding result in experiment [1] was “binds”. For “MHF1 (subunit of the purified FANCM anchor complex) (from UniProt Q8N2Z9 1-138)”, the binding result in experiment [2] is recorded as “binds”.

B1: FAAP24 (subunit of the purified FANCM anchor complex) (protein, UniProt Q9BTP7 1-215)
chain: MEKNPPDDTGPVHVPLGHIVANEKWRGSQLAQEMQGKIKLIFEDGLTPDFYLSNRCCILYVTEADLVAGNGYRKRLVRVRNSNNLKGIVVVEKTRMSEQYFPALQKFTVLDLGMVLLPVASQMEASCLVIQLVQEQTKEPSKNPLLGKKRALLLSEPSLLRTVQQIPGVGKVKAPLLLQKFPSIQQLSNASIGELEQVVGQAVAQQIHAFFTQPR
B1: in experiment [2], the binding result is reported as “binds”.

B2: HIS-FAAP24 (co-expressed with FANCM-CTD) (protein, UniProt Q9BTP7 1-215)
chain: B1 chain
As to B2, the binding result in experiment [3], in experiment [4] and in experiment [5] was “binds” throughout.

B3: FANCM-CTD:FAAP24 heterodimer (complex, UniProt Q8IYD8 1799-2048; Q9BTP7 1-215)
chain 1: T2 sequence
chain 2: B1 chain
For B3, the binding result in experiment [6] and in experiment [7] was “no binding” each time.

B4: FANCA (FA core complex component, in cells) (protein, UniProt O15360 1-1455)
chain: MSDSWVPNSASGQDPGGRRRAWAELLAGRVKREKYNPERAQKLKESAVRLLRSHQDLNALLLEVEGPLCKKLSLSKVIDCDSSEAYANHSSSFIGSALQDQASRLGVPVGILSAGMVASSVGQICTAPAETSHPVLLTVEQRKKLSSLLEFAQYLLAHSMFSRLSFCQELWKIQSSLLLEAVWHLHVQGIVSLQELLESHPDMHAVGSWLFRNLCCLCEQMEASCQHADVARAMLSDFVQMFVLRGFQKNSDLRRTVEPEKMPQVTVDVLQRMLIFALDALAAGVQEESSTHKIVRCWFGVFSGHTLGSVISTDPLKRFFSHTLTQILTHSPVLKASDAVQMQREWSFARTHPLLTSLYRRLFVMLSAEELVGHLQEVLETQEVHWQRVLSFVSALVVCFPEAQQLLEDWVARLMAQAFESCQLDSMVTAFLVVRQAALEGPSAFLSYADWFKASFGSTRGYHGCSKKALVFLFTFLSELVPFESPRYLQVHILHPPLVPGKYRSLLTDYISLAKTRLADLKVSIENMGLYEDLSSAGDITEPHSQALQDVEKAIMVFEHTGNIPVTVMEASIFRRPYYVSHFLPALLTPRVLPKVPDSRVAFIESLKRADKIPPSLYSTYCQACSAAEEKPEDAALGVRAEPNSAEEPLGQLTAALGELRASMTDPSQRDVISAQVAVISERLRAVLGHNEDDSSVEISKIQLSINTPRLEPREHMAVDLLLTSFCQNLMAASSVAPPERQGPWAALFVRTMCGRVLPAVLTRLCQLLRHQGPSLSAPHVLGLAALAVHLGESRSALPEVDVGPPAPGAGLPVPALFDSLLTCRTRDSLFFCLKFCTAAISYSLCKFSSQSRDTLCSCLSPGLIKKFQFLMFRLFSEARQPLSEEDVASLSWRPLHLPSADWQRAALSLWTHRTFREVLKEEDVHLTYQDWLHLELEIQPEADALSDTERQDFHQWAIHEHFLPESSASGGCDGDLQAACTILVNALMDFHQSSRSYDHSENSDLVFGGRTGNEDIISRLQEMVADLELQQDLIVPLGHTPSQEHFLFEIFRRRLQALTSGWSVAASLQRQRELLMYKRILLRLPSSVLCGSSFQAEQPITARCEQFFHLVNSEMRNFCSHGGALTQDITAHFFRGLLNACLRSRDPSLMVDFILAKCQTKCPLILTSALVWWPSLEPVLLCRWRRHCQSPLPRELQKLQEGRQFASDFLSPEAASPAPNPDWLSAAALHFAIQQVREENIRKQLKKLDCEREELLVFLFFFSLMGLLSSHLTSNSTTDLPKAFHVCAAILECLEKRKISWLALFQLTESDLRLGRLLLRVAPDQHTRLLPFAFYSLLSYFHEDAAIREEAFLHVAVDMYLKLVQLFVAGDTSTVSPPAGRSLELKGQGNPVELITKARLFLLQLIPRCPKKSFSHVAELLADRGDCDPEVSAALQSRQQAAPDADLSQEPHLF
For the molecule B4, in experiment [8], the binding entry is on record as “binds”.

B5: FANCE (FA core complex component, in cells) (protein, UniProt Q9HB96 1-536)
chain: T1 sequence 2
With B5, the binding result in experiment [8] is given as “binds”.
